Measured values as given in patent publication US20230295323A1.
Results are given in words; binding and its absence hold for the method and conditions named. Some binding calls cover weakened binding; strength is not graded here.

Sequences of proteins named here, by UniProt entry; tags and fusion partners are left off. A change or cut given only in a name is not applied to a line headed by its entry. Residues count along the entry.
UniProt Q9Y5U5: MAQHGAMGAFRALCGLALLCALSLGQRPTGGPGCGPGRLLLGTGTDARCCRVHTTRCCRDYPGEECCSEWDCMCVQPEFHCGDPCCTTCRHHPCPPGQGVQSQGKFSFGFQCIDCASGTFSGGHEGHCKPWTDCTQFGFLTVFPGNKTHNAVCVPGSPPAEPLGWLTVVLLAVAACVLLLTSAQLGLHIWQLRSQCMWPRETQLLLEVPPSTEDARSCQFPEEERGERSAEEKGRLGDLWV
human GITR on cells (293T-GITR, Jurkat-hGITR / Jurkat-GITR, Jurkat-GITR-NF-kB, 293T-GITR-NFkb-luc, primary CD4 T cells): residues 26-241 of Q9Y5U5
human GITR (ECD)-mFc: residues 26-162 of Q9Y5U5

Key:
[1] = target: human GITR (ECD)-mFc (human) (UniProt Q9Y5U5); assay: ELISA, plate-coated GITR-mFc (FIG. 1)
[2] = target: human GITR on cells (293T-GITR, Jurkat-hGITR / Jurkat-GITR, Jurkat-GITR-NF-kB, 293T-GITR-NFkb-luc, primary CD4 T cells) (human) (UniProt Q9Y5U5); assay: FACS on Jurkat-GITR cells (FIG. 2)
[3] = target: human GITR (ECD)-mFc (human) (UniProt Q9Y5U5); assay: ELISA, plate-coated GITR-mFc

Measured: binding

B1: 3F5 (humanized) -hIgG1 (antibody, V domains shown)
VH: QVQLVQSGAEVKKPGASVKVSCKASGYTFTDHYMHWVRQAPGQGLEWIGDINPNSGGTINNQNFKGRATLTVDKSISTAYMELSRLRSDDTAVYYCARGFSGLAYWGQGTLVTVSS
VL: DIVMTQTPLSSPVTLGQPASISCKSSQSLLDRDGKTYLNWLQQRPGQPPRRLIYLVSILDSGVPDRFSGSGAGTDFTLKISRVEAEDVGVYYCWQGTHFPWTFGQGTKLEIKR
binds: [1] | [2] | [3]
